These are yes or no findings as the source states them, for the method shown. Binding seen in cells or lysates may run through a third protein. Some results given as binding are weak or reduced against the parent protein; the word gives no strength.
Target: histone-lysine N-methyltransferase 2D (KMT2D) (human (endogenous in SCC25)) (UniProt O14686)
Assay: co-IP; 5 ug anti-KMT2D antibody (anti-IgG as control) added to SCC25 cell samples, Universal Magnetic co-IP kit (Active Motif 54002); MEF2A detected by immunoblotting

Chains of the proteins cited; added tags and fusions are not shown.
UniProt O14686: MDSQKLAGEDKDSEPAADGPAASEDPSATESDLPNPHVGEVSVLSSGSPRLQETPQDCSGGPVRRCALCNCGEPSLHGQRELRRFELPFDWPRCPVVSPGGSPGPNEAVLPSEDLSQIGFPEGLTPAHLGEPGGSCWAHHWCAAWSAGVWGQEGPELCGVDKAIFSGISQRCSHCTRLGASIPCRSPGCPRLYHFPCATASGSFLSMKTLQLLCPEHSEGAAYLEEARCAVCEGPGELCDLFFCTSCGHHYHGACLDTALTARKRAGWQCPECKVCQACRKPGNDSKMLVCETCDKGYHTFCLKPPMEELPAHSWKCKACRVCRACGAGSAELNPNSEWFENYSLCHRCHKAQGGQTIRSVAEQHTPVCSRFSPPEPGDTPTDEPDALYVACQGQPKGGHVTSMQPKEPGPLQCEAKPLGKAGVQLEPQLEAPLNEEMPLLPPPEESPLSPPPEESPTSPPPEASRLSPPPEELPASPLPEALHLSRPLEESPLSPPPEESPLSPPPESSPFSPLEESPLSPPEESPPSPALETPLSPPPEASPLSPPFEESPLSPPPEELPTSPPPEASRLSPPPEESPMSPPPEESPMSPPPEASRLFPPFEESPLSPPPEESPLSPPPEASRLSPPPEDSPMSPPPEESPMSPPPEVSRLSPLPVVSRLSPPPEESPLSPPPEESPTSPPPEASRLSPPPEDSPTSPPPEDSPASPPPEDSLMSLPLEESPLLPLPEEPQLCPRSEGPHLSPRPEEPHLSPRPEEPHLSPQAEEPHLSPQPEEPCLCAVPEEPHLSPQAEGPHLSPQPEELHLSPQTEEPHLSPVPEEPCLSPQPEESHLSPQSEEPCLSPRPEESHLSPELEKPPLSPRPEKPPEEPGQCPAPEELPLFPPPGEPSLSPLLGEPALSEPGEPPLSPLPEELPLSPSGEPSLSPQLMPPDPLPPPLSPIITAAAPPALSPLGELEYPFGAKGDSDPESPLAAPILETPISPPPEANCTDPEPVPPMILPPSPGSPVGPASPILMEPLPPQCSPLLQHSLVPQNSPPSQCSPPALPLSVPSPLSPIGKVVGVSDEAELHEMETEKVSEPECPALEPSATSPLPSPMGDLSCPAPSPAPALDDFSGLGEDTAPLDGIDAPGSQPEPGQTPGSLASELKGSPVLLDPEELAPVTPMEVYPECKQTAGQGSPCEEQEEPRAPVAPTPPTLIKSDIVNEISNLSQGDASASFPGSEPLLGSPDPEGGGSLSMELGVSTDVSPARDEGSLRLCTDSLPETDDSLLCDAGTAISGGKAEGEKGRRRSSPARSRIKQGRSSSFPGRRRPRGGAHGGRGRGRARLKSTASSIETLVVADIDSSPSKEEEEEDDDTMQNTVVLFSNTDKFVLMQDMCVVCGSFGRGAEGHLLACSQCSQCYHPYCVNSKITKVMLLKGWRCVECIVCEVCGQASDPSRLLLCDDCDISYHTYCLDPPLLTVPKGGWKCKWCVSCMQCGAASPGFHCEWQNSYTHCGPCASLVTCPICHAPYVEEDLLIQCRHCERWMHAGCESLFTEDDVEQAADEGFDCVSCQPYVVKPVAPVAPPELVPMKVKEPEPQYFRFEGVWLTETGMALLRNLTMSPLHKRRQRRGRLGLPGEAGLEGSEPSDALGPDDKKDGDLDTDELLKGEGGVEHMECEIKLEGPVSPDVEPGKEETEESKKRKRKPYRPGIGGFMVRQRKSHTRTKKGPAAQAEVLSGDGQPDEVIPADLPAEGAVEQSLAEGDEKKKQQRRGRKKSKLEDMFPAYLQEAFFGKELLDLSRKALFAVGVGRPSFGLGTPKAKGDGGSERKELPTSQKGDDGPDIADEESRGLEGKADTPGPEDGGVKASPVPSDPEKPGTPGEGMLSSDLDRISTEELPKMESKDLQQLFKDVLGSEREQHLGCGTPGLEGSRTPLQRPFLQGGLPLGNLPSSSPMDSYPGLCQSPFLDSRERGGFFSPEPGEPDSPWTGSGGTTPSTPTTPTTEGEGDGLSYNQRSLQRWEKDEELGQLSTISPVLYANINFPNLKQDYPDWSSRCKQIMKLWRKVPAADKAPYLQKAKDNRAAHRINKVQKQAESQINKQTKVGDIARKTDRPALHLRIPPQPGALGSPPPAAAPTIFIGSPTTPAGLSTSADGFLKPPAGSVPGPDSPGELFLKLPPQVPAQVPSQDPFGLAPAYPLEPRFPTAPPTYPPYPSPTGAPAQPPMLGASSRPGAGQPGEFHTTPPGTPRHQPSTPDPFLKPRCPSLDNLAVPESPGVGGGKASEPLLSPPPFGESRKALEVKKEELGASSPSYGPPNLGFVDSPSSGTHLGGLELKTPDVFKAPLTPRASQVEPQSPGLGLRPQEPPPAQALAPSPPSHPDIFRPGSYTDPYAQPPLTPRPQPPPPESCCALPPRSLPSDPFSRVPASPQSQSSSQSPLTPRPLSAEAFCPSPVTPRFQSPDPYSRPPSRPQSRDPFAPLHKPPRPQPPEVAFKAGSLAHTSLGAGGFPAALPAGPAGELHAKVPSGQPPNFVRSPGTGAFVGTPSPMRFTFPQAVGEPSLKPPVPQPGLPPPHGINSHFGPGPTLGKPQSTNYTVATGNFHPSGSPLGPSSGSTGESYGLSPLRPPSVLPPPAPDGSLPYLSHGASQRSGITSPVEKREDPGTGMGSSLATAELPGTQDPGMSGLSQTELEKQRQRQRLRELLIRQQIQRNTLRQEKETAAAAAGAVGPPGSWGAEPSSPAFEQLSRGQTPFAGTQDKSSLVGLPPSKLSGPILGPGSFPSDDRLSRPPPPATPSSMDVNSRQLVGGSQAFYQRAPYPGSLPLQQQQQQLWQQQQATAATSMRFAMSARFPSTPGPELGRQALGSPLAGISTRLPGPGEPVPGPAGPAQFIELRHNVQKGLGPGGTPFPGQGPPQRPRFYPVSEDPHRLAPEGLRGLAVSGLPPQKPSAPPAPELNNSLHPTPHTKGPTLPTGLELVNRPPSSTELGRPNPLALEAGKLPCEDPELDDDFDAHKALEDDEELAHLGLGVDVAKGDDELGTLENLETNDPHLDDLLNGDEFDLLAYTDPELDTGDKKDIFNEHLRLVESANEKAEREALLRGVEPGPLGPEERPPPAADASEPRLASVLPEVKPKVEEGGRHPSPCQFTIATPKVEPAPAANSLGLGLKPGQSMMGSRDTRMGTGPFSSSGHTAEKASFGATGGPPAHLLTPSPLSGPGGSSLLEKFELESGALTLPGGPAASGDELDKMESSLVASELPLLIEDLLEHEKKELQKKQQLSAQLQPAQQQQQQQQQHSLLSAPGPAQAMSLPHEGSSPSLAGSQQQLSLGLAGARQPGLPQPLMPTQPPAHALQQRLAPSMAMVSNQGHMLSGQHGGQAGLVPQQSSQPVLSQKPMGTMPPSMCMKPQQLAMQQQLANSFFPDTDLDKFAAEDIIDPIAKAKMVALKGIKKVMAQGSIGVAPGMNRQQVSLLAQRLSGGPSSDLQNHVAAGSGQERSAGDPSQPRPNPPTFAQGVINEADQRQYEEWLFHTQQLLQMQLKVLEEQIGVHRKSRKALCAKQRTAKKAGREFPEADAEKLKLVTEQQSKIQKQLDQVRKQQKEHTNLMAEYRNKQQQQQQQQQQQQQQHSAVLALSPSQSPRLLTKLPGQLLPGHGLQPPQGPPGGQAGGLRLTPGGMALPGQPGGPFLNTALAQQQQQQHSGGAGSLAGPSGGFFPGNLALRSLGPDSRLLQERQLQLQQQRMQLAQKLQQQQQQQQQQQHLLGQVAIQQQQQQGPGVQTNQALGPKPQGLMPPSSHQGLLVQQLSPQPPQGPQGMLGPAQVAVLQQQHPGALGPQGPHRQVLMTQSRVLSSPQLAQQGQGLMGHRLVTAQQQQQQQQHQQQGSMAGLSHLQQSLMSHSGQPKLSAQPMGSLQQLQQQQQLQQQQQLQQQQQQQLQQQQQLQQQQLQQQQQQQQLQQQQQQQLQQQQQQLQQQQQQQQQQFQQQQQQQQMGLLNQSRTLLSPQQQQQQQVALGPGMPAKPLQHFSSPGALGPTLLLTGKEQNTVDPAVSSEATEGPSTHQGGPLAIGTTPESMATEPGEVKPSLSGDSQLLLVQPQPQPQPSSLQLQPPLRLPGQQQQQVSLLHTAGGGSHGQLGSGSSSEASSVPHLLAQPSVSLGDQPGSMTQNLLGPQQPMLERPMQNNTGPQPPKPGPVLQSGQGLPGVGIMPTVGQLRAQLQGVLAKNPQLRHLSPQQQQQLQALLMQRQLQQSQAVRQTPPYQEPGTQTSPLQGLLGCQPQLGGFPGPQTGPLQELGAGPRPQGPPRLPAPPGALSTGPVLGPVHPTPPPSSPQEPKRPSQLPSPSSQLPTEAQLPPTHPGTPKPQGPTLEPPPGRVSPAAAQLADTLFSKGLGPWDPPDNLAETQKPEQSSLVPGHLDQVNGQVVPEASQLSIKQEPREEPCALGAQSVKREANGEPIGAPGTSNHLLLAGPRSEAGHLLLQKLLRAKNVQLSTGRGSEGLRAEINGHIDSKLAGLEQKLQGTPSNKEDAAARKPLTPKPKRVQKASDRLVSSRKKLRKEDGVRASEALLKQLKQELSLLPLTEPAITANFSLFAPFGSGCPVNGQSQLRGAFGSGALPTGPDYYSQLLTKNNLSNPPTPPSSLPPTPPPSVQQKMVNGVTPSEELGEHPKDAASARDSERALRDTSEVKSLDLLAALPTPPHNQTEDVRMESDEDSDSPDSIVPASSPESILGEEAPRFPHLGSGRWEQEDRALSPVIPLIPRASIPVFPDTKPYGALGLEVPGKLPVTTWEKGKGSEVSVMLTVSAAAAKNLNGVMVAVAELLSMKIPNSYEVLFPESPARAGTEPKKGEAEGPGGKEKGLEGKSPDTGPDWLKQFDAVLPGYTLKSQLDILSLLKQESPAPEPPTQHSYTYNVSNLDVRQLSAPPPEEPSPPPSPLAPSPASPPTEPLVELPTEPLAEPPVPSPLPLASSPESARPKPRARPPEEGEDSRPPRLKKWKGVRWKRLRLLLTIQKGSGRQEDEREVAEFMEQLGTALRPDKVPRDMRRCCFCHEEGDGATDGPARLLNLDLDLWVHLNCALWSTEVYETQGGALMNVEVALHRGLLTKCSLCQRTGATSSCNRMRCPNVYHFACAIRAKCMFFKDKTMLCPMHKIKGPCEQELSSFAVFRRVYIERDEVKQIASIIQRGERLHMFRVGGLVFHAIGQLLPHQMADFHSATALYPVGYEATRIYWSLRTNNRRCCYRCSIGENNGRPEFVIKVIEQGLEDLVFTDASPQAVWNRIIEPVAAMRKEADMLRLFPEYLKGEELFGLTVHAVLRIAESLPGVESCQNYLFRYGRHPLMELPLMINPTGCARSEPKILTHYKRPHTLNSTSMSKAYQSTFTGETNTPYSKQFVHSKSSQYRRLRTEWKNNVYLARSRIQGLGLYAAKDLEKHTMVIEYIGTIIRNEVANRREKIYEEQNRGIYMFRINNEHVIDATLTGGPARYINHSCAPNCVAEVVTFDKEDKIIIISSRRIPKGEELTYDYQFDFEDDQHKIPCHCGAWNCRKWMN
UniProt Q02078: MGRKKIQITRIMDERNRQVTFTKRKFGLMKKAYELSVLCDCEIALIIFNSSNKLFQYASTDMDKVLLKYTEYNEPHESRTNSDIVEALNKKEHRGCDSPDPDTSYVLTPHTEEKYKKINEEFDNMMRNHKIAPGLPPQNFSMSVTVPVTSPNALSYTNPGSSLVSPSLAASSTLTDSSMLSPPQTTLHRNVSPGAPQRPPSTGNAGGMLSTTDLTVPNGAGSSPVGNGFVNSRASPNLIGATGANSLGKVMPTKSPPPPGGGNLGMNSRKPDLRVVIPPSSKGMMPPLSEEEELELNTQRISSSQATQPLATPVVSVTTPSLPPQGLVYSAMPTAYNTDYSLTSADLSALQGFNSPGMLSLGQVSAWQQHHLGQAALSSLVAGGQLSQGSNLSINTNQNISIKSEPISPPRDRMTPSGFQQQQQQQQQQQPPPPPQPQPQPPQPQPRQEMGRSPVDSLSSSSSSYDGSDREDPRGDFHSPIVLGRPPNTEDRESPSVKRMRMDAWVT

- binding: binds
Substance: MEF2A (from UniProt Q02078 1-507)

Source: article PMC9044881
